Laboratory results reported in paper PMC7949032, “The KH domain facilitates the substrate specificity and unwinding processivity of DDX43 helicase”.
No constants are given. Whether binding was seen depends on the method and setting.

Biological target: DDX43 KH-domain protein KH-89 (human) (UniProt Q9NXZ2)
Assay: SEC; Sephacryl S-100 high-resolution column calibrated with molecular mass standards; buffer A (25 mM Tris pH 8.0, 0.15 M NaCl, 100 uM Tween 20, 10% glycerol), 0.5 ml/min; both purified

binding: no binding
B1: DDX43 KH-domain protein KH-89 (domain or fragment, UniProt Q9NXZ2 54-142)
chain: TSRPPEAVAAGHEELPLCFALKSHFVGAVIGRGGSKIKNIQSTTNTTIQIIQEQPESLVKIFGSKAMQTKAKAVIDNFVKKLEENYNSE
